Experimental data published in publication PMC11589101, “Profiling the endocrine-disrupting properties of triazines, triazoles, and short-chain PFAS” (Toxicological Sciences, 2024).

Tested on: ER, AR, TR, TTR binding, H295R
Test: In vitro hazard profiling over all readouts (ER, AR, TR, TTR, H295R)
Conditions: cutoff values of Table 2

Row | SMILES | in vitro hazard profile (response category over all readouts)
1 | c1nc[nH]n1 [1,2,4-Triazole] | no response in any of the assays
2 | CC(C)(C)C(O)C(Oc1ccc(-c2ccccc2)cc1)n1cncn1 (stereo not drawn) [Bitertanol] | strong response in at least 2 readouts
3 | FC(F)C(F)(F)OCC(Cn1cncn1)c1ccc(Cl)cc1Cl (stereo not drawn) [Tetraconazole] | strong response in at least 2 readouts
4 | CCNc1nc(NC(C)C)nc(SC)n1 [Ametryn] | strong response in at least 2 readouts
5 | NC(Cn1cncn1)C(=O)O (stereo not drawn) [Triazole alanine] | no response in any of the assays
6 | O=C(O)Cn1cncn1 [Triazole acetic acid] | no response in any of the assays
7 | N#CC(CCc1ccc(Cl)cc1)(Cn1cncn1)c1ccccc1 (stereo not drawn) [Fenbuconazole] | strong response in at least 2 readouts
8 | CC1COC(Cn2cncn2)(c2ccc(Oc3ccc(Cl)cc3)cc2Cl)O1 (stereo not drawn) [Difenoconazole] | strong response in at least 2 readouts
9 | CC(C)(C)C(O)(CCc1ccc(Cl)cc1)Cn1cncn1 (stereo not drawn) [Tebuconazole] | strong response in at least 2 readouts

Some entries repeat one wording, which the source may state once for all of them.
